# Laboratory results reported in patent US20060281109, “Polymerases” (published 2006).
# Where a chain is given by its changes, count along the chain named. The comparison behind a weaker result is the experiment's own reference, which may not be listed here. For some assays here: Where a protein sequence is shown, tags need not be part of it.
# How the values were obtained:
# [1] = molecular target: T1, 9°N-7 YAV C223S exo- R713A (Thermococcus sp. 9°N-7) (UniProt Q56366); assay: binding assay; conditions: 5'-amino, surface coupled; washing assay; more effectively removed at NaCl <200 mM; purified recombinant protein; folded or branched DNA
# T1 sequence: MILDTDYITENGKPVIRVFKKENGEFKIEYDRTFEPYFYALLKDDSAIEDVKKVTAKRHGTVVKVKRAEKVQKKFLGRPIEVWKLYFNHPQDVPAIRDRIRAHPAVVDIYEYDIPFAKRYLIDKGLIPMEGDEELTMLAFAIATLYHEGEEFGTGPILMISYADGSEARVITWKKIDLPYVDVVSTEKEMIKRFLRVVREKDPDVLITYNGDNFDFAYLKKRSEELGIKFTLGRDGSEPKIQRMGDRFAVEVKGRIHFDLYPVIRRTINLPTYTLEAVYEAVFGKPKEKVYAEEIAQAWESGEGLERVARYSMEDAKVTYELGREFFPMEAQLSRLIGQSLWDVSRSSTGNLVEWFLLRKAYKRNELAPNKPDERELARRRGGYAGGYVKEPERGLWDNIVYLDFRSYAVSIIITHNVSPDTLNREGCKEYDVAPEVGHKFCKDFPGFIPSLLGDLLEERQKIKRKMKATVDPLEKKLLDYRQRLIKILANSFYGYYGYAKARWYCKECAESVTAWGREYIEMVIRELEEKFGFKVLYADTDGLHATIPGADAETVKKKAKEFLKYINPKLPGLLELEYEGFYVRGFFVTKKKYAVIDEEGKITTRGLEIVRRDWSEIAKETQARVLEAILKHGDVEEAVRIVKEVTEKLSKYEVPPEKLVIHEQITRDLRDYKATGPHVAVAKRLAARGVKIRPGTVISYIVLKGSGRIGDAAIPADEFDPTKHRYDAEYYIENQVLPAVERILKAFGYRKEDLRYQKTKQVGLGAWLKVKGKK
# [2] = molecular target: T2, 9°N-7 YAV C223S exo- R743A (Thermococcus sp. 9°N-7) (UniProt Q56366); assay: binding assay; conditions: 5'-amino, surface coupled; washing assay; more effectively removed at NaCl <200 mM; purified recombinant protein; folded or branched DNA
# T2 sequence: T1 sequence with K705A, A713R
sequence,measurement,setting,value
CGATCACGATCACGATCACGATCACGATCACGATCACGCTGATGTGCATGCTGTTGTTTTTTTACAACAGCATGCACATCAGCG [A-template hairpin oligo 815],binding result,[1],binds more weakly
same,binding result,[2],binds more weakly
